Measured values published in paper PMC11335216.
These are yes or no findings as the source states them, for the method shown. Binding seen in cells or lysates may run through a third protein. A yes stands for co-enrichment or nearness to the bait. Other partners may have been found. Where a sequence is shown, tags or fusion partners need not be part of it.

Sequences of proteins named here, by UniProt entry; tags and fusion partners are left off. Residues count along the entry.
UniProt O00410: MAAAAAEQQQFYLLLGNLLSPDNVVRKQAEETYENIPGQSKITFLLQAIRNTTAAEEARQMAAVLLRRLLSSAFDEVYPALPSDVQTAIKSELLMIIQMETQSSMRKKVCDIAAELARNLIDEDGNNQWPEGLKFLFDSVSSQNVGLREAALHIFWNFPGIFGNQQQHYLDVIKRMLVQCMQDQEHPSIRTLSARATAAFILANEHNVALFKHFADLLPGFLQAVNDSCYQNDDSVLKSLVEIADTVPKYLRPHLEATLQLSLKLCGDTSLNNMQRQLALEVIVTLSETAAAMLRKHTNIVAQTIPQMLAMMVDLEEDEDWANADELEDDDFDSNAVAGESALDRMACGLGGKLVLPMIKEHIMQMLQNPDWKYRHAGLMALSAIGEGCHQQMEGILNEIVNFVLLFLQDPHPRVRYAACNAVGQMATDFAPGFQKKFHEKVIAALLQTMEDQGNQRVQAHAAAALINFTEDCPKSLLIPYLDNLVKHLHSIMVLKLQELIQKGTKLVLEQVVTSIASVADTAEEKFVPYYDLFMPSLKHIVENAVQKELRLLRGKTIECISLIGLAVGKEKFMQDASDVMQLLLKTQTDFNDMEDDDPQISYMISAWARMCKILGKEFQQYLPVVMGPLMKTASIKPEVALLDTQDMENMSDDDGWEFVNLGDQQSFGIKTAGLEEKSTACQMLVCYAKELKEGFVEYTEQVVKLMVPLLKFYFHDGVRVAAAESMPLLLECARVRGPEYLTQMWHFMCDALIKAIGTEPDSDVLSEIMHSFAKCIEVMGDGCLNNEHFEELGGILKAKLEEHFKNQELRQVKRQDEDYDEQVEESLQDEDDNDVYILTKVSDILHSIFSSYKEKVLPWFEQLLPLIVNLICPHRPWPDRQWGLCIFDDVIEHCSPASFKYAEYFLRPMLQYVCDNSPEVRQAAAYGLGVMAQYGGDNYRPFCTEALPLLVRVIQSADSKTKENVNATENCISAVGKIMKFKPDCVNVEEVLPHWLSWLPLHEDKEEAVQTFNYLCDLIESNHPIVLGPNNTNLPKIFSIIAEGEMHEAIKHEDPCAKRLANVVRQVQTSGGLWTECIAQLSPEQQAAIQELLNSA
UniProt P05161, residues 1-157: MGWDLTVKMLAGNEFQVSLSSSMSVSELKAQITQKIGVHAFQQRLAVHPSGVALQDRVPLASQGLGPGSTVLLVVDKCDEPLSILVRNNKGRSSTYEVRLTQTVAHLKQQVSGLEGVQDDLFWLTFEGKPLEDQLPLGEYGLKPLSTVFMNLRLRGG

T1: PPP2R2B-FLAG (serine/threonine protein phosphatase 2A regulatory subunit PPP2R2B) (human) (UniProt Q00005)
T1 sequence: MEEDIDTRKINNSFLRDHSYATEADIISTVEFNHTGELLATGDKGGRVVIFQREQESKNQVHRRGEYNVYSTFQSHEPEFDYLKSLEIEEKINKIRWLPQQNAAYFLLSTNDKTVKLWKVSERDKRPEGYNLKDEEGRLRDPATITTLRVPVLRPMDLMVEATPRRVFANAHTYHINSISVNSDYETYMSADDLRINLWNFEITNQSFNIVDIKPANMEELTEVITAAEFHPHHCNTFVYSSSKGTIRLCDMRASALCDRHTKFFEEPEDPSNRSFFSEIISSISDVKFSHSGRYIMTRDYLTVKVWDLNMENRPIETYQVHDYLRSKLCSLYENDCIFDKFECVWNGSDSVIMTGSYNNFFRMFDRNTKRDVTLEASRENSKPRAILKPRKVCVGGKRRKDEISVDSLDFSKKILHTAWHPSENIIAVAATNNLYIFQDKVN

B1: MX2 (protein, UniProt P20592 1-715)
chain: MSKAHKPWPYRRRSQFSSRKYLKKEMNSFQQQPPPFGTVPPQMMFPPNWQGAEKDAAFLAKDFNFLTLNNQPPPGNRSQPRAMGPENNLYSQYEQKVRPCIDLIDSLRALGVEQDLALPAIAVIGDQSSGKSSVLEALSGVALPRGSGIVTRCPLVLKLKKQPCEAWAGRISYRNTELELQDPGQVEKEIHKAQNVMAGNGRGISHELISLEITSPEVPDLTIIDLPGITRVAVDNQPRDIGLQIKALIKKYIQRQQTINLVVVPCNVDIATTEALSMAHEVDPEGDRTIGILTKPDLMDRGTEKSVMNVVRNLTYPLKKGYMIVKCRGQQEITNRLSLAEATKKEITFFQTHPYFRVLLEEGSATVPRLAERLTTELIMHIQKSLPLLEGQIRESHQKATEELRRCGADIPSQEADKMFFLIEKIKMFNQDIEKLVEGEEVVRENETRLYNKIREDFKNWVGILATNTQKVKNIIHEEVEKYEKQYRGKELLGFVNYKTFEIIVHQYIQQLVEPALSMLQKAMEIIQQAFINVAKKHFGEFFNLNQTVQSTIEDIKVKHTAKAENMIQLQFRMEQMVFCQDQIYSVVLKKVREEIFNPLGTPSQNMKLNSHFPSNESSVSSFTEIGIHLNAYFLETSKRLANQIPFIIQYFMLRENGDSLQKAMMQILQEKNRYSWLLQEQSETATKRRILKERIYRLTQARHALCQFSSKEIH

molecular target: T1, PPP2R2B-FLAG (serine/threonine protein phosphatase 2A regulatory subunit PPP2R2B) (human); experiment: affinity purification with mass spectrometry; lysate of cells transfected with PPP2R2B-FLAG or vector control; anti-FLAG magnetic beads overnight at 4 °C; eluted in SDS buffer; MS

binding, binds:
importin 5 (IPO5) (from UniProt O00410 1-1097), interferon stimulated gene 15 (ISG15) (from UniProt P05161 1-157), B1
